Results as given in the supplement of paper PMC6078165.
The reference is the same well before dosing, and untreated signal decays as well.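 Fibroblast labels name human fibroblasts: mostly primary ones from tissues such as uterus (C12385, HUF), lung (H6013), bone (Hs27A), adrenal (HADF) and skin (WS1), plus mammary HMF and breast cancer-associated Hs343T. The cancer cells are basal-like or mesenchymal-like triple-negative breast cancer lines. The paper calls a changed response a hit when it shifts by more than 3x the replicate standard deviation. The tissue of the other fibroblasts is not given here.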

System: Hs578T
Experiment: relative JC-1 red fluorescence (viability) vs pre-drug, coculture with fibroblast (fraction); higher = more viable cancer cells
Settings: 10 µM
Experimental: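 JC-1 labelled TNBC cells cocultured 1:1 (1,500 cells each) with CellTrace Violet stained primary or stromal fibroblasts in 384-well plates in FluoroBrite medium, treated with one of 42 anticancer drugs at 0.1, 1, 10 or 100 uM. JC-1 red fluorescence (mitochondrial integrity in cancer cells only) was read by plate reader every 8 h for 72 h. Values are normalised to each well's pre-drug value. The stock of one drug was tenfold lower, so its dose labels may be too high.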

CO[C@H]1C[C@@H]2CC[C@@H](C)[C@@](O)(O2)C(=O)C(=O)N2CCCC[C@H]2C(=O)O[C@H]([C@H](C)C[C@@H]2CC[C@@H](O)[C@H](OC)C2)CC(=O)[C@H](C)/C=C(\C)[C@@H](O)[C@@H](OC)C(=O)[C@H](C)C[C@H](C)/C=C/C=C/C=C/1C [Rapamycin]
Settings | relative JC-1 red fluorescence
8 h | 0.902
16 h | 0.775
24 h | 0.663
32 h | 0.606
40 h | 0.537
48 h | 0.521
56 h | 0.511
64 h | 0.489
72 h | 0.495

relative JC-1 red fluorescence
Settings | 8 h | 16 h | 24 h | 32 h | 40 h | 48 h | 56 h | 64 h | 72 h
coculture fibroblast: C12385 | 0.845 | 0.818 | 0.766 | 0.705 | 0.6129 | 0.579 | 0.549 | 0.536 | 0.526
coculture fibroblast: H6013 | 0.896 | 0.85 | 0.8119 | 0.758 | 0.743 | 0.767 | 0.775 | 0.791 | 0.774
coculture fibroblast: H6019 | 0.7716 | 0.643 | 0.554 | 0.485 | 0.495 | 0.506 | 0.517 | 0.537 | 0.544
coculture fibroblast: H6076 | 0.952 | 0.829 | 0.692 | 0.645 | 0.569 | 0.563 | 0.5533 | 0.5578 | 0.5703
coculture fibroblast: H6231 | 0.909 | 0.892 | 0.872 | 0.868 | 0.814 | 0.824 | 0.773 | 0.779 | 0.763
coculture fibroblast: HADF | 0.9698 | 0.945 | 0.903 | 0.893 | 0.875 | 0.871 | 0.854 | 0.864 | 0.8632
coculture fibroblast: HCFa | 0.888 | 0.818 | 0.758 | 0.754 | 0.758 | 0.793 | 0.799 | 0.806 | 0.786
coculture fibroblast: HCPF | 0.919 | 0.818 | 0.761 | 0.736 | 0.698 | 0.695 | 0.714 | 0.68 | 0.666
coculture fibroblast: HHSteC | 0.9753 | 0.949 | 0.869 | 0.793 | 0.924 | 0.9135 | 0.877 | 0.85 | 0.811
coculture fibroblast: HMF | 0.906 | 0.8184 | 0.7178 | 0.674 | 0.609 | 0.606 | 0.593 | 0.575 | 0.576
coculture fibroblast: HPFa | 0.824 | 0.888 | 0.862 | 0.774 | 0.86 | 0.875 | 0.843 | 0.818 | 0.773
coculture fibroblast: HUF | 0.877 | 0.845 | 0.894 | 0.851 | 0.821 | 0.803 | 0.775 | 0.767 | 0.75
coculture fibroblast: Hs27A | 0.964 | 0.925 | 0.927 | 0.921 | 0.86 | 0.874 | 0.895 | 0.851 | 0.81
coculture fibroblast: Hs343T | 0.9968 | 0.848 | 0.717 | 0.653 | 0.535 | 0.505 | 0.453 | 0.431 | 0.424
coculture fibroblast: WS1 | 0.825 | 0.763 | 0.707 | 0.614 | 0.545 | 0.531 | 0.497 | 0.501 | 0.495
